From PubChem BioAssay AID504467 (National Center for Advancing Translational Sciences (NCATS), 2011)
Hit rate of the full screen: of about 330,000 compounds, about 7,700 (2.3%) were called active. This list was built around the results that the source calls inconclusive (neither active nor inactive); the mix of calls is not that of the screen. Calls come from the whole dose curve; as a rule, active = well fitted inhibition curve with a large enough effect; inconclusive = small, poorly fitted or top-dose-only effect, or effect the other way; inactive = flat fitted curve, though single readings scatter. A potency beside an inconclusive call is a rough fit, not a confirmed value.

Assay: qHTS screen for small molecules that inhibit ELG1-dependent DNA repair in human embryonic kidney (HEK293T) cells expressing luciferase-tagged ELG1; note: nearly all actives have a fitted effect of over 55% in size
Settings: HEK293T ELG1-luciferase reporter, luminescence, 16 h, DNA damage induced by 5-fluorouridine; series mostly up to 46.1 µM
Outline: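 DMSO vehicle served as the neutral condition. Each well held 2,000 cells given 5-fluorouridine plus compound; after 16 hr at 37 °C/5% CO2, ONE-Glo was added and luciferase measured 30 min later.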
Potency is the fitted concentration of half-maximal effect.

| Compound | Potency |
| --- | --- |
| Cc1cc(C)c(NC(=O)c2ccccc2C(=O)c2ccccc2)c(C)c1 | inconclusive: 29.1 µM [inhibitor, single point] |
| COCCNC(=O)c1ccc2c(c1)C(=O)c1ccccc1-2 | inactive |
| CCCCC(=O)Nc1cccc(NC(=O)c2cccc(Br)c2)c1 | active: 7.3 µM |
| C(=N\Nc1ccccn1)/c1ccc(N2CCOCC2)cc1 | inconclusive: 5.17 µM [activator, partial curve] |
| COc1ccc(NC(=O)N2CCN(C(=O)C3CCCO3)CC2)cc1 (configuration not stated) | inactive |
| CC(C)(C)C(=O)Nc1nc2ccc(S(C)(=O)=O)cc2s1 | inconclusive: 5.17 µM [activator, full curve] |
| Cc1[nH]n2c(=O)c3c(nc2c1-c1cccc2ccccc12)CCC3 | inactive |
| Cc1ccc(OCCC(=O)N2CCN(c3ccc(O)cc3)CC2)cc1 | active: 7.3 µM |
| COc1cc2c(cc1OC)CN(Cc1cccs1)CC2 | inactive |
| COc1cc(Cl)ccc1OCc1cc(C(=O)N(C)C2CCOC2)no1 (configuration not stated) | inconclusive: 20.6 µM [activator, partial curve] |
| Cc1ccc(C)c(N2CCN(S(=O)(=O)c3csc(C(N)=O)c3)CC2)c1 | inconclusive: 23.1 µM [inhibitor, partial curve, poor fit] |
| Cc1ccc2oc(-c3ccc(C)c(NC(=S)NC(=O)c4cccs4)c3)nc2c1 | inconclusive: 4.11 µM [activator, partial curve] |
| CC(=O)c1nn(-c2ccc(Br)cc2)cc1C(=O)c1ccccc1 | inactive |
| COC(=O)c1ccc(CSc2nnc(CS(=O)Cc3ccc(Br)cc3)n2-c2ccccc2)cc1 (configuration not stated) | inconclusive: 25.9 µM [inhibitor, single point] |
| CC[C@H](C)[C@H](NC(=O)OCc1ccccc1)C(=O)OCC(=O)Nc1ccc(N2CCOCC2)cc1 | inactive |
| Cc1ccc(/C=C/C(=O)c2ccccc2)cc1 | inconclusive: 16.4 µM [activator, partial curve] |
| Cc1coc2c(C)c3oc(=O)c(CC(=O)N[C@@H](CC(C)C)C(=O)O)c(C)c3cc12 | inactive |
| O=[N+]([O-])c1ccc(/C=N/NC(=S)Nc2ccccc2)o1 | inconclusive: 18.4 µM [activator, single point] |
| COC(=O)C1=CN(Cc2cccs2)C=C(C(=O)OC)C1c1cccc(Cl)c1 | inconclusive: 20.6 µM [inhibitor, single point] |
| CCOC(=O)c1cc(-c2ccc([N+](=O)[O-])cc2)nc2c1c(=O)[nH]c(=O)n2Cc1ccccc1 | inactive |
| COc1ccc(C(NC(=O)c2cccnc2)c2cc(Cl)c3cccnc3c2O)cc1OC (configuration not stated) | inconclusive: 2.31 µM [inhibitor, full curve] |
| O=C1CC(c2cccc(Cl)c2)C(n2cncn2)C(=O)C1C1NCCc2ccccc21 (configuration not stated) | inconclusive: 18.4 µM [activator, single point] |
| CCC1CCCCN1c1nc(-c2ccncc2)nc2ccccc12 (configuration not stated) | inconclusive: 29.1 µM [inhibitor, single point] |
| CN(C)c1ccc(/C=N/n2c(-c3ccccc3Br)n[nH]c2=S)cc1 | inactive |

Looked up above:
Cc1coc2c(C)c3oc(=O)c(CC(=O)N[C@@H](CC(C)C)C(=O)O)c(C)c3cc12 | Potency: inactive
CC(=O)c1nn(-c2ccc(Br)cc2)cc1C(=O)c1ccccc1 | Potency: inactive

Following part:

| Compound | Potency |
| --- | --- |
| CC(C)c1ccc(/C=C2\CC/C(=C\C=N\N(C)C)C2=O)cc1 | inconclusive: 4.61 µM [activator, partial curve] |
| O=C1CCCN1CCCNc1nc2c(S(=O)(=O)c3ccc(Br)cc3)nnn2c2ccccc12 | inactive |
| O=C(CSCc1ccc(F)cc1)Nc1ccccc1 | inconclusive: 14.6 µM [activator, partial curve] |
| CCSc1ccc(/C(N)=N/OC(=O)c2cccs2)cn1 | inconclusive: 13 µM [activator, partial curve] |
| O=C(O)CSc1cccc2cccnc12 | inconclusive: 8.2 µM [activator, partial curve, poor fit] |
| c1ccc(-c2noc(-c3ccc4ccccc4c3)n2)nc1 | inconclusive: 0.0731 µM [activator, full curve] |
| CC(C)(C)OC(=O)N1Cc2ccccc2C[C@H]1C(=O)NCC(=O)Nc1ccc2c(c1)OCCO2 | inconclusive: 18.3 µM [activator, partial curve] |
| Cc1cc(NC(=O)c2ccc(C)s2)n(-c2nc3ccccc3[nH]2)n1 | inconclusive: 9.2 µM [inhibitor, partial curve] |
| CCCc1c(C(=O)N/N=C(\C)c2ccc(O)cc2)nnn1-c1nonc1N | inactive |
| O=C(COc1ccccc1[N+](=O)[O-])Nc1ccc(N2CCN(C(=O)c3cccs3)CC2)cc1 | active: 18.3 µM |
| COc1cc2[nH]c(=S)n(C3CCCC3)c(=O)c2cc1OC | inactive |
| COc1cc(/C=N/N=C2/NC(=O)C(CC(=O)O)S2)ccc1OCc1cccc(Cl)c1 (configuration not stated) | inactive |
| COC(=O)CNc1cc(S(=O)(=O)N2CCCCC2)ccc1Oc1ccc(C(=O)OC)cc1 | inconclusive: 20.6 µM [inhibitor, single point] |
| Cc1occc1C(=O)Nc1cccc2ccccc12 | inconclusive: 2.59 µM [activator, full curve] |
| Cc1ccc(NC(=O)N(CCCN2CCOCC2)Cc2cc3cc4c(cc3[nH]c2=O)OCO4)cc1 | inactive |
| COc1ccc2nc(NNC(=O)COc3ccccc3)sc2c1 | inconclusive: 29.1 µM [activator, partial curve, poor fit] |
| CC(C)CCNC(=O)C(CC(C)C)N(Cc1ccc2c(c1)OCO2)C(=O)c1snc(C(N)=O)c1N (configuration not stated) | inconclusive: 29.1 µM [inhibitor, single point] |
| CCOc1ccc(N2C(=O)CC(N(O)c3ccccc3)C2=O)cc1 (configuration not stated) | inconclusive: 16.4 µM [activator, partial curve] |
| COc1ccc(Cn2c3nc4ccccc4nc3c3c(=O)n(Cc4ccco4)c(C)nc32)cc1 | inactive |
| CCn1c(SCC(=O)NC(=O)c2ccccc2OC)nc2ccccc21 | inactive |
| CCN(CC)C(=O)c1nc[nH]c1C(=O)N1CCN(c2ccccc2)CC1 | inactive |
| Cc1nn(C)cc1S(=O)(=O)Nc1ccc2c(c1)OCCO2 | inconclusive: 20.6 µM [activator, partial curve] |
| COc1ccccc1CNc1ncnc2cc(Cl)ccc12 | inactive |
| Cn1c(C(C#N)C(=O)c2ccco2)nc2ccccc21 (configuration not stated) | inconclusive: 16.4 µM [activator, partial curve] |

20 entries from above, with bars between the fields.
Compound | Potency
O=C1CCCN1CCCNc1nc2c(S(=O)(=O)c3ccc(Br)cc3)nnn2c2ccccc12 | inactive
O=C(CSCc1ccc(F)cc1)Nc1ccccc1 | inconclusive: 14.6 µM [activator, partial curve]
CCSc1ccc(/C(N)=N/OC(=O)c2cccs2)cn1 | inconclusive: 13 µM [activator, partial curve]
O=C(O)CSc1cccc2cccnc12 | inconclusive: 8.2 µM [activator, partial curve, poor fit]
c1ccc(-c2noc(-c3ccc4ccccc4c3)n2)nc1 | inconclusive: 0.0731 µM [activator, full curve]
CC(C)(C)OC(=O)N1Cc2ccccc2C[C@H]1C(=O)NCC(=O)Nc1ccc2c(c1)OCCO2 | inconclusive: 18.3 µM [activator, partial curve]
Cc1cc(NC(=O)c2ccc(C)s2)n(-c2nc3ccccc3[nH]2)n1 | inconclusive: 9.2 µM [inhibitor, partial curve]
CCCc1c(C(=O)N/N=C(\C)c2ccc(O)cc2)nnn1-c1nonc1N | inactive
O=C(COc1ccccc1[N+](=O)[O-])Nc1ccc(N2CCN(C(=O)c3cccs3)CC2)cc1 | active: 18.3 µM
COc1cc2[nH]c(=S)n(C3CCCC3)c(=O)c2cc1OC | inactive
COc1cc(/C=N/N=C2/NC(=O)C(CC(=O)O)S2)ccc1OCc1cccc(Cl)c1 (configuration not stated) | inactive
COC(=O)CNc1cc(S(=O)(=O)N2CCCCC2)ccc1Oc1ccc(C(=O)OC)cc1 | inconclusive: 20.6 µM [inhibitor, single point]
Cc1occc1C(=O)Nc1cccc2ccccc12 | inconclusive: 2.59 µM [activator, full curve]
Cc1ccc(NC(=O)N(CCCN2CCOCC2)Cc2cc3cc4c(cc3[nH]c2=O)OCO4)cc1 | inactive
COc1ccc2nc(NNC(=O)COc3ccccc3)sc2c1 | inconclusive: 29.1 µM [activator, partial curve, poor fit]
CC(C)CCNC(=O)C(CC(C)C)N(Cc1ccc2c(c1)OCO2)C(=O)c1snc(C(N)=O)c1N (configuration not stated) | inconclusive: 29.1 µM [inhibitor, single point]
CCOc1ccc(N2C(=O)CC(N(O)c3ccccc3)C2=O)cc1 (configuration not stated) | inconclusive: 16.4 µM [activator, partial curve]
COc1ccc(Cn2c3nc4ccccc4nc3c3c(=O)n(Cc4ccco4)c(C)nc32)cc1 | inactive
CCn1c(SCC(=O)NC(=O)c2ccccc2OC)nc2ccccc21 | inactive
CCN(CC)C(=O)c1nc[nH]c1C(=O)N1CCN(c2ccccc2)CC1 | inactive

Remaining list, next part

| Compound | Potency |
| --- | --- |
| CC(=O)c1c(C)n(-c2ccc(C)cc2)c2ccc(O)cc12 | inconclusive: 3.16 µM [inhibitor, partial curve] |
| COc1ccc(/C=C2\C(=O)N(c3c(Cl)cc(Cl)cc3Cl)N=C2NC(=O)c2cccc([N+](=O)[O-])c2)cc1 | inconclusive: 20.6 µM [activator, single point] |
| O=C(/C=C/c1ccco1)Nc1cccnc1 | inconclusive: 16.4 µM [activator, partial curve] |
| Cc1cccc(S(=O)(=O)Nc2ccc(-c3nc4ccc(C)cc4s3)cc2)c1 | inconclusive: 2.91 µM [activator, full curve] |
| O=C(Nc1ccc2c(c1)OCCO2)c1ccc(Cl)c(Cl)c1 | inconclusive: 3.16 µM [activator, single point] |
| Cc1cc(OCc2cc(C(=O)N3CCCCCC3)no2)cc(C)c1Cl | inconclusive: 23.1 µM [activator, partial curve] |
| O=C(COc1cccc2ccccc12)N1c2ccccc2CCc2ccccc21 | inactive |
| Cc1ccc(SCCSc2ncccn2)cc1 | inconclusive: 9.2 µM [activator, partial curve] |
| N#CCN(N=Nc1ccccc1)c1ccccc1 | inactive |
| COc1ccccc1Nc1nc2c(s1)CCC2 | inconclusive: 16.4 µM [activator, partial curve] |
| Cc1nn(C)c(C)c1S(=O)(=O)N(CC(=O)NCCCN1CC(C)CC(C)C1)c1ccc(C(C)C)cc1 (configuration not stated) | inconclusive: 11.6 µM [activator, partial curve] |
| COc1ccc(Cc2nnc(SCC(=O)N3CCCC3)o2)cc1 | inconclusive: 13 µM [inhibitor, partial curve] |
| Cc1sc(NC(=S)NC(=O)C(C)(C)C)c(C(N)=O)c1C | inconclusive: 12.6 µM [activator, partial curve, poor fit] |
| CCCn1c(NC(=O)C2CCN(C(=O)c3ccc(F)cc3)CC2)nc2ccccc21 | inconclusive: 16.4 µM [inhibitor, partial curve] |
| CCc1nc(C)ccc1OCC(=O)O | inconclusive: 5.17 µM [activator, partial curve, poor fit] |
| O=C(/C=C/c1cccc([N+](=O)[O-])c1)OCC(=O)N1CCOCC1 | inconclusive: 16.4 µM [activator, partial curve, poor fit] |
| CCOC(=O)C1=CN(Cc2cccc(-c3ccc(Cl)nc3)c2)S(=O)(=O)N(C)C1C (configuration not stated) | inconclusive: 29.1 µM [inhibitor, single point] |
| CCC(=O)c1ccc(N2CCN(C(=O)c3ccc(Br)cc3)CC2)c(F)c1 | inactive |
| O=C(N/N=C/C=C\c1ccccc1[N+](=O)[O-])c1cc(-c2ccc3ccccc3c2)n[nH]1 | inactive |
| COc1cc(C2=NOC(C(=O)N3CCCCCC3)C2)cc(OC)c1OC (configuration not stated) | active: 7.31 µM |
| Cc1c(CCC(=O)N2CCC(C(=O)NCCCCCC(=O)O)CC2)c(=O)oc2cc3oc4c(c3cc12)CCCC4 | inactive |
| CC(=O)Nc1cccc(OCc2ccc(F)cc2)c1 | inconclusive: 18.3 µM [activator, single point] |
| Cc1ccccc1NC(=O)CSc1nnc(-c2ccco2)c(-c2ccco2)n1 | inactive |
| CCc1nnc(NC(=O)CN2CC(C)OC(C)C2)s1 (configuration not stated) | inactive |
